This test addresses human CD3 gamma-epsilon single-chain (human) (UniProt P09693+P07766). Description: SPR. In general terms: SPR reads the build-up and loss of mass on a sensor chip optically.

Chains of the proteins cited; added tags and fusions are not shown. Lines headed by an entry give the natural chain unless they say otherwise; changes in a name come on top.
UniProt P09693: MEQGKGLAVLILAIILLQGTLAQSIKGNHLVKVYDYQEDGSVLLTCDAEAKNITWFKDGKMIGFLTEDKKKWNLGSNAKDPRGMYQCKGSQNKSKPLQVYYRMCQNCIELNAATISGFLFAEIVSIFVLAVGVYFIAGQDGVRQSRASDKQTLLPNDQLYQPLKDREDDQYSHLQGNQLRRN
UniProt P07766: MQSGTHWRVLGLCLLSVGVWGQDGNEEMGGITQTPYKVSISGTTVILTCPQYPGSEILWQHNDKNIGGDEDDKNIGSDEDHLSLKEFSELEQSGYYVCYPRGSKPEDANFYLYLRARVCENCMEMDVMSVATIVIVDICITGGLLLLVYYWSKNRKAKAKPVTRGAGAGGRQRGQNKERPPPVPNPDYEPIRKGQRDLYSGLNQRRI

Results are given in words; binding and its absence hold for the method and conditions named. Some binding calls cover weakened binding; strength is not graded here.

B1: PRO741 (protein)
chain 1: DIQMTQSPSSLSASVGDRVTITCQASENIYSFLAWYQQKPGKAPKLLIYSASKLAAGVPSRFSGSGSGTDFTLTISSLQPEDFATYYCQQTNRYSNPDIYNVFGTGTKVTVLGGGGGSGGGGSGGGGSGGGGSEVQLVESGGGLVQPGGSLRLSCAASGIDFNSNYYMCWVRQAPGKGLEWIGCIYVGSHVNTYYANWAKGRFTISRDNSKNTVYLQMNSLRAEDTAVYYCATSGSSVLYFKFWGQGTLVTVSSGGGGSGGGGSDIQMTQSPSSLSASVGDRVTITCQSSQSVFSNNYLAWFQQKPGQSPKRLIYSASTLASGVPSRFSGSGSGTDFTLTISSLQPEDFATYYCLGSYACSSADCYVFGCGTKVTVLGSGGGGSGGGGSDVVMTQSPSSLSASVGDRVTITCQASQIISSRSAWYQQKPGQPPKLLIYQASKLASGVPSRFSGSGSGTDFTLTISSLQPEDFATYYCQCTYIDSNFGAFGGGTKLTVLG
chain 2: DIQMTQSPSSLSASVGDRVTITCQASENIYSFLAWYQQKPGKAPKLLIYSASKLAAGVPSRFSGSGSGTDFTLTISSLQPEDFATYYCQQTNRYSNPDIYNVFGTGTKVTVLGGGGGSGGGGSGGGGSGGGGSEVQLVESGGGLVQPGGSLRLSCAASGIDFNSNYYMCWVRQAPGKGLEWIGCIYVGSHVNTYYANWAKGRFTISRDNSKNTVYLQMNSLRAEDTAVYYCATSGSSVLYFKFWGQGTLVTVSSGGGGSGGGGSEVQLVESGGGLVQPGGSLRLSCAASGFSFSSSYWICWVRQAPGKGLEWVGCVFTGDGTTYYASWAKGRFTISRDNSKNTVYLQMNSLRAEDTATYFCARPVSVYYYGMDLWGQGTLVTVSSSGGGGSGGGGSEVQLVESGGGLVQPGGSLRLSCAASGFSLSSYDMSWVRQAPGKCLAWIGASYASGPTYYASWAKGRFTISRDNSKNTVYLQMNSLRAEDTATYFCARGGWTGTSHSNIWGQGTLVTVSS
In the case of B1, the binding entry is on record as “binds”.

B2: PRO738 (protein)
chain 1: DIQMTQSPSSLSASVGDRVTITCQASENIYSFLAWYQQKPGKAPKLLIYSASKLAAGVPSRFSGSGSGTDFTLTISSLQPEDFATYYCQQTNRYSNPDIYNVFGTGTKVTVLGGGGGSGGGGSGGGGSGGGGSEVQLVESGGGLVQPGGSLRLSCAASGIDFNSNYYMCWVRQAPGKGLEWIGCIYVGSHVNTYYANWAKGRFTISRDNSKNTVYLQMNSLRAEDTAVYYCATSGSSVLYFKFWGQGTLVTVSSGGGGSGGGGSDIQMTQSPSSLSASVGDRVTITCQSSQSVFSNNYLAWFQQKPGQSPKRLIYSASTLASGVPSRFSGSGSGTDFTLTISSLQPEDFATYYCLGSYACSSADCYVFGCGTKVTVLGGGGGSGGGGSGGGGSDIQMTQSPSSLSASVGDRVTITCQSSESVYSNNQLSWYQQKPGQPPKLLIYDASDLASGVPSRFSGSGSGTDFTLTISSLQPEDFATYYCAGGFSSSSDTAFGGGTKLTVLG
chain 2: DIQMTQSPSSLSASVGDRVTITCQASENIYSFLAWYQQKPGKAPKLLIYSASKLAAGVPSRFSGSGSGTDFTLTISSLQPEDFATYYCQQTNRYSNPDIYNVFGTGTKVTVLGGGGGSGGGGSGGGGSGGGGSEVQLVESGGGLVQPGGSLRLSCAASGIDFNSNYYMCWVRQAPGKGLEWIGCIYVGSHVNTYYANWAKGRFTISRDNSKNTVYLQMNSLRAEDTAVYYCATSGSSVLYFKFWGQGTLVTVSSGGGGSGGGGSEVQLVESGGGLVQPGGSLRLSCAASGFSLSSNAMGWVRQAPGKGLEYIGIISVGGFTYYASWAKGRFTISRDNSKNTVYLQMNSLRAEDTATYFCARDRHGGDSSGAFYLWGQGTLVTVSSGGGGSGGGGSGGGGSEVQLVESGGGLVQPGGSLRLSCAASGFSLSSYDMSWVRQAPGKCLAWIGASYASGPTYYASWAKGRFTISRDNSKNTVYLQMNSLRAEDTATYFCARGGWTGTSHSNIWGQGTLVTVSS
For B2, the binding entry is on record as “binds”.

B3: PRO747 (protein)
chain 1: DIQMTQSPSSLSASVGDRVTITCQASENIYSFLAWYQQKPGKAPKLLIYSASKLAAGVPSRFSGSGSGTDFTLTISSLQPEDFATYYCQQTNRYSNPDIYNVFGTGTKVTVLGGGGGSGGGGSGGGGSGGGGSEVQLVESGGGLVQPGGSLRLSCAASGIDFNSNYYMCWVRQAPGKGLEWIGCIYVGSHVNTYYANWAKGRFTISRDNSKNTVYLQMNSLRAEDTAVYYCATSGSSVLYFKFWGQGTLVTVSSGGGGSGGGGSDIQMTQSPSSLSASVGDRVTITCQSSQSVFSNNYLAWFQQKPGQSPKRLIYSASTLASGVPSRFSGSGSGTDFTLTISSLQPEDFATYYCLGSYACSSADCYVFGCGTKVTVLGAEAAAKEAAAKADIQMTQSPSSLSASVGDRVTITCQSSESVYSNNQLSWYQQKPGQPPKLLIYDASDLASGVPSRFSGSGSGTDFTLTISSLQPEDFATYYCAGGFSSSSDTAFGGGTKLTVLG
chain 2: DIQMTQSPSSLSASVGDRVTITCQASENIYSFLAWYQQKPGKAPKLLIYSASKLAAGVPSRFSGSGSGTDFTLTISSLQPEDFATYYCQQTNRYSNPDIYNVFGTGTKVTVLGGGGGSGGGGSGGGGSGGGGSEVQLVESGGGLVQPGGSLRLSCAASGIDFNSNYYMCWVRQAPGKGLEWIGCIYVGSHVNTYYANWAKGRFTISRDNSKNTVYLQMNSLRAEDTAVYYCATSGSSVLYFKFWGQGTLVTVSSGGGGSGGGGSEVQLVESGGGLVQPGGSLRLSCAASGFSLSSNAMGWVRQAPGKGLEYIGIISVGGFTYYASWAKGRFTISRDNSKNTVYLQMNSLRAEDTATYFCARDRHGGDSSGAFYLWGQGTLVTVSSAEAAAKEAAAKAEVQLVESGGGLVQPGGSLRLSCAASGFSLSSYDMSWVRQAPGKCLAWIGASYASGPTYYASWAKGRFTISRDNSKNTVYLQMNSLRAEDTATYFCARGGWTGTSHSNIWGQGTLVTVSS
Take B3: the binding result was “binds”.

B4: PRO737 (protein)
chain 1: DIQMTQSPSSLSASVGDRVTITCQASENIYSFLAWYQQKPGKAPKLLIYSASKLAAGVPSRFSGSGSGTDFTLTISSLQPEDFATYYCQQTNRYSNPDIYNVFGTGTKVTVLGGGGGSGGGGSGGGGSGGGGSEVQLVESGGGLVQPGGSLRLSCAASGIDFNSNYYMCWVRQAPGKGLEWIGCIYVGSHVNTYYANWAKGRFTISRDNSKNTVYLQMNSLRAEDTAVYYCATSGSSVLYFKFWGQGTLVTVSSGGGGSGGGGSDIQMTQSPSSLSASVGDRVTITCQSSESVYNNKRLSWYQQKPGKAPKLLIYTASSLASGVPSRFSGSGSGTDFTLTISSLQPEDFATYYCQGEFTCSNADCFTFGCGTKVTVLGGGGGSGGGGSGGGGSDIQMTQSPSSLSASVGDRVTITCQSSESVYSNNQLSWYQQKPGQPPKLLIYDASDLASGVPSRFSGSGSGTDFTLTISSLQPEDFATYYCAGGFSSSSDTAFGGGTKLTVLG
chain 2: DIQMTQSPSSLSASVGDRVTITCQASENIYSFLAWYQQKPGKAPKLLIYSASKLAAGVPSRFSGSGSGTDFTLTISSLQPEDFATYYCQQTNRYSNPDIYNVFGTGTKVTVLGGGGGSGGGGSGGGGSGGGGSEVQLVESGGGLVQPGGSLRLSCAASGIDFNSNYYMCWVRQAPGKGLEWIGCIYVGSHVNTYYANWAKGRFTISRDNSKNTVYLQMNSLRAEDTAVYYCATSGSSVLYFKFWGQGTLVTVSSGGGGSGGGGSEVQLVESGGGLVQPGGSLRLSCAASGFPLSSYAMIWVRQAPGKCLEWIGMILRAGNIYYASWVKGRFTISRDNSKNTVYLQMNSLRAEDTAVYYCARRHYNREGYPIGIGDLWGQGTLVTVSSGGGGSGGGGSGGGGSEVQLVESGGGLVQPGGSLRLSCAASGFSLSSNAMGWVRQAPGKGLEYIGIISVGGFTYYASWAKGRFTISRDNSKNTVYLQMNSLRAEDTATYFCARDRHGGDSSGAFYLWGQGTLVTVSS
As to B4, the binding entry is recorded as “binds”.

The record behind these values is US20200181263A1.
